Source: US20220160663A1 (SEOUL NATIONAL UNIVERSITY R AND DB FOUNDATION, published 2022)
These are yes or no findings as the source states them, for the method shown. In cells and extracts the contact can be indirect. Some entries that bind do so weakly or less than the wild type.

Amino acid sequences for entries named in this document (tags omitted).
UniProt P11166: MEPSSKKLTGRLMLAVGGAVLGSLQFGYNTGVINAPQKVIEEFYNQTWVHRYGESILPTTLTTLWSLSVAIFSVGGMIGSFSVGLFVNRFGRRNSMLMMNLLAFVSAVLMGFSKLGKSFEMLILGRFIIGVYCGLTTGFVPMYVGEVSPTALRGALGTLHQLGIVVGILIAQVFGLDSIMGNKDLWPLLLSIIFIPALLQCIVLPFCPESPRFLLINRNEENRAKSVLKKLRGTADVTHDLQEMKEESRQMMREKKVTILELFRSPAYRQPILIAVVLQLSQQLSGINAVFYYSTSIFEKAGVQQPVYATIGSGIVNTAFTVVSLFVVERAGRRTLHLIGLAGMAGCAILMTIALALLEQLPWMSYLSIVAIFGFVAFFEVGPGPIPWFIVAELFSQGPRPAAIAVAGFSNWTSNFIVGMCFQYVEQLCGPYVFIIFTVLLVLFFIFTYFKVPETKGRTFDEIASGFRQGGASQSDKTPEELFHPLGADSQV
UniProt O14894: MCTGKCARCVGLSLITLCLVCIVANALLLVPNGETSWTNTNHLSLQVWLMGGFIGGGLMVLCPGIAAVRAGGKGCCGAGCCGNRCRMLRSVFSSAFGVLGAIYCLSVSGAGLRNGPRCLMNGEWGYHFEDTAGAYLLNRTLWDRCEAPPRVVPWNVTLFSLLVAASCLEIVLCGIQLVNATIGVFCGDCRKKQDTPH

Key:
[1] = target: Glut1 (accession number: NP_006507) WT, HA-tagged (UniProt P11166); test: Strep pull-down from THP-1 cell extract, anti-HA Western blot
[2] = target: Glut1 (accession number: NP_006507) WT, HA-tagged (UniProt P11166); test: Strep pull-down, Western blot (summary of results in the description)
[3] = target: Glut1 (accession number: NP_006507) WT, HA-tagged (UniProt P11166); test: Strep pull-down from THP-1 cell extract, anti-HA Western blot (summary of Exp. Ex. 4-1 and 4-2)

Measured: binding

TM4SF5-Strep WT (transmembrane 4 L six family member 5, Strep-tagged) (from UniProt O14894 1-197)
binds: all assays above
